Results as given in PubChem BioAssay AID1487 (National Center for Advancing Translational Sciences (NCATS), 2009).
The list shows a part of the results. Further columns of the screen follow, without active or inactive calls. Compounds called inactive in the main read-out are mostly missing here. The note in brackets gives the kind of curve behind each potency; many fits are weak.

Assay: qHTS Assay for Modulators of Lamin A Splicing
Settings: HeLa LMNA splicing GFP/RFP minigene ratio, 48 h
Summary of the method: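 S3 HeLa cells stably expressing lamin A-EGFP splicing minigene plus DsRed2, 600 cells/well, 48 h compound exposure at 37C. Laser-scanning cytometry; analysed as GFP (500-530 nm)/RFP (575-640 nm) total intensity ratio; 0.5% DMSO vehicle.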

[1] = measured here: GFP splicing reporter channel
[2] = measured here: RFP viability control channel

Row | Structure (SMILES) | AC50 [1] | AC50 [2]
1 | O=C(NCCC1=CCCCC1)c1cc(-c2ccncc2)nc2ccccc12 | 0.0251 µM [falling, partial curve, poor fit] | 
2 | COc1cc([N+](=O)[O-])ccc1NC(=O)CC1SC(=Nc2ccc(F)cc2)N(CCC2=CCCCC2)C1=O (configuration not stated) | 6.31 µM [rising, partial curve] | 5.01 µM [rising, partial curve]
3 | CCOC(=O)C1=C(C)N(c2ccc(C)c(C)c2)C(=O)/C1=C\c1ccco1 | 11.2 µM [rising, single point] | 12.6 µM [rising, single point]
4 | Cc1ccc(CN(C(=O)Cn2nnc3ccccc32)C(C(=O)NCc2ccco2)c2cccs2)cc1 (configuration not stated) | 11.2 µM [rising, partial curve] | 11.2 µM [rising, single point]
5 | COc1cc(OC)cc(N2C(=O)N(Cc3ccc(C(C)(C)C)cc3)c3ccccc3S2(=O)=O)c1 | 6.31 µM [falling, partial curve] | 
6 | O=C(CCC1CCCC1)N1CCN(S(=O)(=O)Cc2ccccc2)CC1 |  | 11.2 µM [rising, partial curve]
7 | c1coc(Cn2c(SCc3nc4ccccc4[nH]3)nnc2-c2cnccn2)c1 | 35.5 µM [rising, single point] | 17.8 µM [rising, single point]
8 | Cn1c(CNC(=O)c2ccccc2F)nnc1SCC(=O)NCc1ccccc1 | 0.631 µM [falling, full curve] | 0.316 µM [falling, full curve]
9 | COC(=O)c1scc(-c2ccc(C)cc2)c1S(=O)(=O)N1CCN(c2ccccc2)CC1 | 0.00891 µM [falling, full curve, poor fit] | 0.0141 µM [falling, full curve, poor fit]
10 | C#CCCOC(=O)N1C2=NC(C(=O)OC)=C(C(=O)OC)[C@@H]3Nc4ccccc4[C@]23C[C@H]1C(=O)OC | 0.0794 µM [rising, single point] | 
11 | Cc1ccc(-c2nnn(CCC(=O)Nc3ccc4c(c3)OCO4)n2)cc1 |  | 17.8 µM [rising, partial curve, poor fit]
12 | COc1ccc(S(=O)(=O)N2CCN(Cc3ccc(Cl)cc3)CC2)cc1 | 35.5 µM [rising, single point] | 22.4 µM [rising, single point]
13 | CCCCC1=CC2=CC(=O)C(C)(OC(=O)CC)C(=O)C2=CN1CCCN(CC)CC (configuration not stated) |  | 0.0316 µM [falling, full curve, poor fit]
14 | CCCCC(NC(C)=O)c1nc2ccccc2n1CCCC (configuration not stated) | 11.2 µM [rising, partial curve] | 14.1 µM [rising, single point]
15 | CC(C)Oc1cccc(C(=O)C2CCCN(C(=O)c3csnn3)C2)c1 (configuration not stated) |  | 2 µM [falling, full curve, poor fit]
16 | CCC(Sc1nc2ccccc2s1)C(=O)Nc1nnc(C)s1 (configuration not stated) | 35.5 µM [rising, single point] | 35.5 µM [rising, single point]
17 | CCn1c(SCC(=O)c2ccccc2)nnc1-c1cc2cc(Br)ccc2o1 | 0.00794 µM [rising, full curve, poor fit] | 0.01 µM [rising, full curve, poor fit]
18 | CC1(C)N=C(SCc2ccccc2Cl)c2ccccc2N1 | 20 µM [falling, partial curve, poor fit] | 20 µM [falling, partial curve, poor fit]
19 | NCC1CCC(N)C(O[C@@H]2C(O)[C@H](O[C@H]3OC(CO)C(O)C(N)C3O)[C@@H](N)C[C@H]2N)O1 (some centres not stated) | 0.447 µM [falling, partial curve] | 15.8 µM [falling, partial curve, poor fit]
20 | Cc1cc(Cl)ccc1OCC(=O)Nc1ccccc1N1CCOCC1 | 11.2 µM [rising, single point] | 22.4 µM [rising, single point]
21 | CCOC(=O)c1c(NC(=O)CN2C(=O)NC(C)(c3ccc(OC(F)F)cc3)C2=O)sc(C)c1C (configuration not stated) |  | 12.6 µM [rising, partial curve]
22 | CCOC(=O)CSc1nc2sc(C)c(C)c2c(=O)n1N | 22.4 µM [rising, single point] | 
23 | CC(C)NC(=O)c1ccc(-n2c(=S)[nH]c3ccccc3c2=O)cc1 | 0.00708 µM [falling, full curve, poor fit] | 
24 | O=[N+]([O-])c1nn(-c2ccc3c(c2)OCCO3)n(O)c1=Nc1ccccc1 |  | 20 µM [rising, single point]
25 | Cc1cc2nc(-c3cccnc3SCC(=O)NCc3ccco3)[nH]c2cc1C | 11.2 µM [rising, partial curve] | 3.98 µM [rising, full curve, poor fit]
26 | NC(=O)c1ccc(NC(=O)COC(=O)c2c3c(nc4ccccc24)/C(=C\c2ccc4c(c2)OCO4)CCC3)cc1 | 35.5 µM [falling, single point] | 35.5 µM [falling, single point]

A different layout for 5 compounds above.
Row	Structure (SMILES)	AC50 [1]	AC50 [2]
7	c1coc(Cn2c(SCc3nc4ccccc4[nH]3)nnc2-c2cnccn2)c1	35.5 µM [rising, single point]	17.8 µM [rising, single point]
8	Cn1c(CNC(=O)c2ccccc2F)nnc1SCC(=O)NCc1ccccc1	0.631 µM [falling, full curve]	0.316 µM [falling, full curve]
9	COC(=O)c1scc(-c2ccc(C)cc2)c1S(=O)(=O)N1CCN(c2ccccc2)CC1	0.00891 µM [falling, full curve, poor fit]	0.0141 µM [falling, full curve, poor fit]
10	C#CCCOC(=O)N1C2=NC(C(=O)OC)=C(C(=O)OC)[C@@H]3Nc4ccccc4[C@]23C[C@H]1C(=O)OC	0.0794 µM [rising, single point]	
11	Cc1ccc(-c2nnn(CCC(=O)Nc3ccc4c(c3)OCO4)n2)cc1		17.8 µM [rising, partial curve, poor fit]

Remaining list, next part:

Row | Structure (SMILES) | AC50 [1] | AC50 [2]
27 | Cc1ccc(S(=O)(=O)n2nc(C)c(C#N)c2N)cc1 |  | 2.82 µM [rising, full curve]
28 | Cc1cc2c(cc1C)NC(c1ccccn1)C1=C(CC(C)(C)CC1=O)N2 (configuration not stated) | 0.282 µM [rising, partial curve] | 
29 | CC(C)(C)C1C=C(Sc2ccccc2)C(=O)O1 (configuration not stated) | 12.6 µM [falling, partial curve] | 8.91 µM [falling, partial curve]
30 | O=c1c(-c2ccccc2)nc2cnc(Nc3ccccc3)nc2n1C[C@H]1CCCO1 | 11.2 µM [falling, partial curve, poor fit] | 10 µM [falling, partial curve, poor fit]
31 | COc1ccc(Cl)cc1NC(=O)N(C)CCc1c(C)nn(C)c1C |  | 0.0562 µM [falling, full curve, poor fit]
32 | Cc1cccc(NC2=C/C(=N/S(=O)(=O)c3cccs3)c3ccccc3C2=O)c1 | 0.126 µM [falling, full curve, poor fit] | 5.62 µM [falling, partial curve]
33 | Cn1c(SCc2nc(-c3ccc(Cl)cc3)no2)nnc1-c1ccco1 |  | 20 µM [rising, single point]
34 | Fc1ccc(Sc2ccccc2CNC2=NCCN2)cc1 | 11.2 µM [rising, single point] | 15.8 µM [rising, single point]
35 | Cn1c(CNC(=O)Nc2cccc(Cl)c2)nnc1SCc1ccccc1 | 15.8 µM [rising, single point] | 15.8 µM [rising, single point]
36 | CC(=O)CCC(=O)O | 7.08 µM [falling, full curve, poor fit] | 11.2 µM [falling, partial curve, poor fit]
37 | CC(C)CNC(=S)N1CCC(c2nc(-c3ccc(F)cc3)no2)CC1 | 15.8 µM [falling, single point] | 
38 | Cc1nc(Oc2ccc(S(=O)(=O)N3CCOCC3)cc2Cl)c2c3c(sc2n1)CCCC3 | 35.5 µM [rising, single point] | 35.5 µM [rising, single point]
39 | CC(=O)N(CN1C(=O)c2ccc([N+](=O)[O-])cc2C1=O)c1cccc(C(=O)O)c1 | 0.00501 µM [rising, full curve, poor fit] | 
40 | CCn1c2c(c3cc(Cl)ccc31)CCCC2=O |  | 17.8 µM [rising, single point]
41 | CC(=O)c1ccc(NC(=O)c2cc(C)nc3c2c(C)nn3-c2ccc(C)cc2)cc1 | 0.282 µM [falling, full curve, poor fit] | 
42 | COc1ccc(-c2nc3c(c4c2C[C@H](c2ccccc2)OC4)CN(S(=O)(=O)c2ccc(C)cc2)CC3)c(C)c1 |  | 5.62 µM [rising, single point]
43 | COc1ccc(-c2nnn(CC(=O)N(CCCN3CCOCC3)C(C(=O)NC3CCCC3)c3ccco3)n2)cc1 (configuration not stated) | 0.0562 µM [rising, full curve, poor fit] | 
44 | COc1cccc(-n2c(SCC(N)=O)nc3c([nH]c4ccccc43)c2=O)c1 |  | 15.8 µM [rising, single point]
45 | COC(=O)c1cn(C)c2ccc(S(=O)(=O)N3CCCCC3)cc2c1=O |  | 7.94 µM [falling, partial curve]
46 | O=C(OCc1ccccc1)c1ccc(O)cc1 | 0.00316 µM [falling, full curve, poor fit] | 14.1 µM [falling, single point]
47 | CCN(CC)c1ccc(C(=O)NC(=S)N2CCN(Cc3ccc4c(c3)OCO4)CC2)cc1 |  | 20 µM [rising, single point]
48 | CCOc1ccc(S(=O)(=O)N2c3ccccc3CC2C)cc1 (configuration not stated) | 10 µM [rising, single point] | 
49 | O=C(NCCCCCc1nc2ccccc2[nH]1)c1ccccc1Cl | 0.631 µM [falling, partial curve, poor fit] | 3.16 µM [falling, partial curve, poor fit]
50 | CC(C)(C)C(=O)OCOC(=O)[C@@H]1N2C(=O)[C@@H](NC(=O)[C@H](N)c3ccccc3)[C@H]2SC1(C)C | 0.251 µM [falling, full curve, poor fit] | 0.000355 µM [rising, full curve, poor fit]
51 | COc1ccc(CCNC(=O)Cn2nc(C(=O)O)c3ccccc3c2=O)cc1OC | 35.5 µM [falling, single point] | 35.5 µM [falling, single point]
